No constants are given. Whether binding was seen depends on the method and setting. Binding seen in cells or lysates may run through a third protein. Binding can be weak; no strength is given. For some of these results: Where a sequence is shown, tags or fusion partners need not be part of it.
Tests used:
[1] = target: VDAC1 (mouse skeletal muscle) (mouse (endogenous in skeletal muscle)) (UniProt Q60932); assay: proximity ligation; in situ PLA on paraffin-embedded sections of gastrocnemius of WT and REDD1 KO mice treated for 5 h with DEX; bright-field revelation, ten fields per muscle
[2] = target: inositol trisphosphate receptor (IP3R) (human (endogenous in primary myoblasts)); assay: proximity ligation; Duolink II in situ PLA in human myoblasts transfected with empty vector (pCMV) or mycREDD1; cells fixed with 4% formaldehyde, permeabilized with 0.1% Triton X100; fluorescence read-out
[3] = target: voltage-dependent anion channel (VDAC) (human (endogenous in primary myoblasts)); assay: as above
[4] = target: voltage-dependent anion channel (VDAC) (human (endogenous in primary myoblasts)); assay: proximity ligation; Duolink II in situ PLA between endogenous proteins in human primary myoblasts transfected with control siRNA or siRNA against REDD1; spots per nucleus quantified with Blobfinder

Sequences of proteins named here, by UniProt entry; tags and fusion partners are left off. A change or cut given only in a name is not applied to a line headed by its entry.
UniProt Q60932: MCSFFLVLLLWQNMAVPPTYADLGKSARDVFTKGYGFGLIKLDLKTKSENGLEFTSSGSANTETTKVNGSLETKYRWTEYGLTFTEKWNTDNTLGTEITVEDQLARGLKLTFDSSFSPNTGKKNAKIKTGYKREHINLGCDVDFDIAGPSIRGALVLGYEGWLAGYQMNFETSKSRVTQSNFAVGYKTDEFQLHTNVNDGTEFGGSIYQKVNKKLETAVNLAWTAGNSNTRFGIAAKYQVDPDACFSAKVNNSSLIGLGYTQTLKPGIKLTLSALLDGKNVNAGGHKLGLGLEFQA
UniProt P11881: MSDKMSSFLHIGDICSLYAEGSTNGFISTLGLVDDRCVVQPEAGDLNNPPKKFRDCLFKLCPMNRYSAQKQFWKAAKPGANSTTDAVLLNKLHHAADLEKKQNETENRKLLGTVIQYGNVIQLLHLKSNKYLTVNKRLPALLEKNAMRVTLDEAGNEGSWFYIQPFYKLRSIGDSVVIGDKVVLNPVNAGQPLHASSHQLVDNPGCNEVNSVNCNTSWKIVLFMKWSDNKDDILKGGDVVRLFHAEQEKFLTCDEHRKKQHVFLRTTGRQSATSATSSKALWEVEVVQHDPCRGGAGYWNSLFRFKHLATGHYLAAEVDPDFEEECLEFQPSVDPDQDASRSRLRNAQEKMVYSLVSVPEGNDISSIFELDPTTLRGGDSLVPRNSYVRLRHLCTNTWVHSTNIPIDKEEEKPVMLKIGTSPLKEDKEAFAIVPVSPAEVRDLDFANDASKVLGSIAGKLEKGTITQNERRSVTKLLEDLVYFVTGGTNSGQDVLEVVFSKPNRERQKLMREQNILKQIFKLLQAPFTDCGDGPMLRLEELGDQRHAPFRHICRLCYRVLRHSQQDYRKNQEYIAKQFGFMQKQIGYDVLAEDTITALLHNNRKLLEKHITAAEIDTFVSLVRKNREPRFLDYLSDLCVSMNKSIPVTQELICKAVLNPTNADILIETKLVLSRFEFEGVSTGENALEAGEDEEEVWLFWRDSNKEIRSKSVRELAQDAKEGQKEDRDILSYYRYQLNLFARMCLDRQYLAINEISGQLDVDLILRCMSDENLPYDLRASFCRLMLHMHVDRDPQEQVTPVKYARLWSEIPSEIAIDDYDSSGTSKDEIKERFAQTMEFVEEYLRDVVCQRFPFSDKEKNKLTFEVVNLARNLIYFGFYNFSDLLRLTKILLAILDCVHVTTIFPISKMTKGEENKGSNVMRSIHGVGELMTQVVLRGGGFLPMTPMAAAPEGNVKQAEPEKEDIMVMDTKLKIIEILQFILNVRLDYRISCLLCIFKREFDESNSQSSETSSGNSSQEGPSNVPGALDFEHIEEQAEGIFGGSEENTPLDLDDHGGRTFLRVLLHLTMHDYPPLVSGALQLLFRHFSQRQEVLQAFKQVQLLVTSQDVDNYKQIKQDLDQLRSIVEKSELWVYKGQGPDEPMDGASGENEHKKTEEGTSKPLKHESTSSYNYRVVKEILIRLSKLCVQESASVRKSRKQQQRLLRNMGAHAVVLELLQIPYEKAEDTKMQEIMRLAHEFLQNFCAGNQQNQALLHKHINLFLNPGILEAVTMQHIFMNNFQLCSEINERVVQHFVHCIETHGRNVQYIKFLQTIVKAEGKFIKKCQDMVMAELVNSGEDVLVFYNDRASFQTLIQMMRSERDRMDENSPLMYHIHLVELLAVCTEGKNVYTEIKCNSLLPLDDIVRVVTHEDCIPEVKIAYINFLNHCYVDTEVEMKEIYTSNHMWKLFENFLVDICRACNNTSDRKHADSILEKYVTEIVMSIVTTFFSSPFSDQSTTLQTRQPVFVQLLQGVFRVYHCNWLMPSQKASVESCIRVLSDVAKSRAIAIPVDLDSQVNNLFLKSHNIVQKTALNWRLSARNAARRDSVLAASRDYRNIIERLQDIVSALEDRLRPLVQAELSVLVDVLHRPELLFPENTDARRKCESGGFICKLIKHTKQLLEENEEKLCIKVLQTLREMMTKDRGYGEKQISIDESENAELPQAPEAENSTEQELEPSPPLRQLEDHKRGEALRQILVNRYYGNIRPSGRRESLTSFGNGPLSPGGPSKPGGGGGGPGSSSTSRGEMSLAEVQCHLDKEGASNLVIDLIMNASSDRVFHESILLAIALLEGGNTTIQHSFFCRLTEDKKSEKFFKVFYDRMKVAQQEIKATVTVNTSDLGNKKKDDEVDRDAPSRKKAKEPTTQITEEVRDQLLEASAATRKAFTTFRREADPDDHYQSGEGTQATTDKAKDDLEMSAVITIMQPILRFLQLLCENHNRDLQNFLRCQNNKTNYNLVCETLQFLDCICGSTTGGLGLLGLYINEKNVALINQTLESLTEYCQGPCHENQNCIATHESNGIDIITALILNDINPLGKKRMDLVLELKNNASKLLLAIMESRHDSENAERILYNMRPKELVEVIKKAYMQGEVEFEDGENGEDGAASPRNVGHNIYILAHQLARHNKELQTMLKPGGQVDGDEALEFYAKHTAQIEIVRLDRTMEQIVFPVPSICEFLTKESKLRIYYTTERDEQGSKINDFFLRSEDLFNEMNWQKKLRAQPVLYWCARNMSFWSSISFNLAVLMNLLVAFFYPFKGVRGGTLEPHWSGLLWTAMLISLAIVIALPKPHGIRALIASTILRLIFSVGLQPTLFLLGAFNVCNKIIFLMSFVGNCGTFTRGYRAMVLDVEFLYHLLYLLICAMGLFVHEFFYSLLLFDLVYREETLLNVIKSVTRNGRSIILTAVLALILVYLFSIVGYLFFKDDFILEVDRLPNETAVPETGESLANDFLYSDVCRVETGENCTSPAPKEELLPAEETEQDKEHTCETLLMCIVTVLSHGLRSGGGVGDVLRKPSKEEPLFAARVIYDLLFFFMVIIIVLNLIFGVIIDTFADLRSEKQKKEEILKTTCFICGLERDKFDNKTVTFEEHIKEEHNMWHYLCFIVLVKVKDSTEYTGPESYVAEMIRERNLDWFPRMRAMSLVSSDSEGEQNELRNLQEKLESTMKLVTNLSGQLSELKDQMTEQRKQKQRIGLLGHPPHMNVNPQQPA

IP3R1 (mouse skeletal muscle) (from UniProt P11881 1-2749)
binding [1]: binds

B1: murine REDD1 fused to Myc (protein, UniProt Q9D3F7 1-229)
chain: MPSLWDRFSSSSSSSSSSRTPAADRPPRSAWGSAAREEGLDRCASLESSDCESLDSSNSGFGPEEDSSYLDGVSLPDFELLSDPEDEHLCANLMQLLQESLSQARLGSRRPARLLMPSQLVSQVGKELLRLAYSEPCGLRGALLDVCVEQGKSCHSVAQLALDPSLVPTFQLTLVLRLDSRLWPKIQGLLSSANSSLVPGYSQSLTLSTGFRVIKKKLYSSEQLLIEEC
binding [2]: binds | binding [3]: binds

B2: Hexokinase II (HKII) (enzyme, UniProt P52789 1-917)
chain: MIASHLLAYFFTELNHDQVQKVDQYLYHMRLSDETLLEISKRFRKEMEKGLGATTHPTAAVKMLPTFVRSTPDGTEHGEFLALDLGGTNFRVLWVKVTDNGLQKVEMENQIYAIPEDIMRGSGTQLFDHIAECLANFMDKLQIKDKKLPLGFTFSFPCHQTKLDESFLVSWTKGFKSSGVEGRDVVALIRKAIQRRGDFDIDIVAVVNDTVGTMMTCGYDDHNCEIGLIVGTGSNACYMEEMRHIDMVEGDEGRMCINMEWGAFGDDGSLNDIRTEFDQEIDMGSLNPGKQLFEKMISGMYMGELVRLILVKMAKEELLFGGKLSPELLNTGRFETKDISDIEGEKDGIRKAREVLMRLGLDPTQEDCVATHRICQIVSTRSASLCAATLAAVLQRIKENKGEERLRSTIGVDGSVYKKHPHFAKRLHKTVRRLVPGCDVRFLRSEDGSGKGAAMVTAVAYRLADQHRARQKTLEHLQLSHDQLLEVKRRMKVEMERGLSKETHASAPVKMLPTYVCATPDGTEKGDFLALDLGGTNFRVLLVRVRNGKWGGVEMHNKIYAIPQEVMHGTGDELFDHIVQCIADFLEYMGMKGVSLPLGFTFSFPCQQNSLDESILLKWTKGFKASGCEGEDVVTLLKEAIHRREEFDLDVVAVVNDTVGTMMTCGFEDPHCEVGLIVGTGSNACYMEEMRNVELVEGEEGRMCVNMEWGAFGDNGCLDDFRTEFDVAVDELSLNPGKQRFEKMISGMYLGEIVRNILIDFTKRGLLFRGRISERLKTRGIFETKFLSQIESDCLALLQVRAILQHLGLESTCDDSIIVKEVCTVVARRAAQLCGAGMAAVVDRIRENRGLDALKVTVGVDGTLYKLHPHFAKVMHETVKDLAPKCDVSFLQSEDGSGKGAALITAVACRIREAGQR
binding [4]: binds

— publication PMC5998563
